Among all 400,000 compounds or so, about 13,000 (3.2%) were called active. Inconclusive results, whose numbers are uncertain, are shown with a selection of clear calls. Calls come from the whole dose curve; as a rule, active = well fitted cell-killing curve with a large enough effect; inconclusive = small, poorly fitted or top-dose-only effect, or effect the other way; inactive = flat fitted curve, though single readings scatter. A potency beside an inconclusive call is a rough fit, not a confirmed value.
Experiment: qHTS assay for MDR1-selective chemotherapeutics: Primary screen using the drug-selected MDR subline cells KB-V1; note: nearly all actives have a fitted effect of over 60% in size
Conditions: KB-V1 MDR cells viability, CellTiter-Glo, 72 h; activity change, negative = cytotoxicity: at 46.1 µM (top of the series)
In short: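 Readout: CellTiter-Glo luminescence, 10 min after addition. Cells: KB-V1 MDR subline, 72 h at 37 degrees C with compound. Analysis: corrected, normalized data fitted to concentration-effect curves.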
% is set by controls: 0 for no effect and ±100 for the full control effect; potency is the fitted concentration of half-maximal effect.

SMILES | Potency | activity change, negative = cytotoxicity
Cc1ccc(COc2ccccc2-c2cc(C(=O)N/N=C/c3cccnc3)[nH]n2)cc1 | inconclusive: 20.6 µM [cytotoxic, single point] | –
COc1ccc(CN(C)Cc2c(O)ccc3ccccc23)cc1 | inconclusive: 29.1 µM [rising, single point] | –
COc1c(F)c(F)c(C(=O)O)c(Nc2ccc(C)cc2)c1F | inactive | –
Cc1ccc(C(=O)N/N=c2\sc3ccccc3n2C)cc1 | inactive | –
CCOc1ccc(C(=O)N2CCN(Cc3ccccc3)CC2)cc1OCC | inconclusive: 7.31 µM [cytotoxic, single point] | –
CS(=O)(=O)N(CC(=O)N1CCOCC1)c1cc(Cl)ccc1Cl | inconclusive: 23.1 µM [rising, single point] | –
O=c1oc(-c2ccccc2F)nc2c1cnn2-c1ccccc1 | inactive | –
COc1ccc(-c2noc(N3CCC(C(=O)Nc4cccc(OC)c4)CC3)n2)cc1 | inactive | –
O=C(CCC1N=C2c3ccccc3N=C(SCc3ccc(F)cc3)N2C1=O)NCCc1ccccc1 (centres undefined) | inactive | –
CC1(C)O[C@H]2[C@@H](O1)[C@@H](C(=O)Nc1ccccc1C(F)(F)F)O[C@@H]1OC(C)(C)O[C@@H]12 | inconclusive: 23.1 µM [cytotoxic, single point] | –
Cc1ccc(S(=O)(=O)N2CCCCC2)cc1C(=O)NCCC1=CCCCC1 | inconclusive: 13 µM [cytotoxic, partial curve] | –
CC(C)OCCCn1c(=NC(=O)c2cccs2)c(C#N)cc2c(=O)n3ccccc3nc21 | – | inconclusive: 20.2%
Cc1ccc(NC(=O)C2CCCN(C(=O)c3cnn(-c4ccc(F)cc4)c3-n3cccc3)C2)c(Cl)c1 (centres undefined) | inconclusive: 11.6 µM [cytotoxic, partial curve, poor fit] | –
CN(Cc1c(F)cccc1Cl)c1ccc(S(=O)(=O)N2CCOCC2)cn1 | active: 18.4 µM | –
O=S1(=O)CCN(OCc2ccc(F)cc2Cl)CC1 | inconclusive: 9.2 µM [rising, partial curve] | –
COc1cccc(OC)c1OCCNCC1COc2ccccc2O1 (centres undefined) | inconclusive: 8.2 µM [cytotoxic, partial curve] | –
CN(CCCNC(=O)C1CCC(=O)N1Cc1ccccc1Cl)c1ccccc1 (centres undefined) | active: 23.1 µM | –
CCOc1ccc2ccccc2c1CNc1nnnn1C | inconclusive: 29.1 µM [cytotoxic, partial curve, poor fit] | –
COc1ccc([N+](=O)[O-])cc1N(CC(=O)N(C)C)S(C)(=O)=O | inactive | –
Cc1ccc(S(=O)(=O)Nc2ccc(N3CCOCC3)cc2)cc1[N+](=O)[O-] | inconclusive: 16.4 µM [cytotoxic, single point] | –
CCN1C(=O)[C@@H]2[C@H](C1=O)[C@@H]1C(=O)Nc3ccccc3C(=O)N1[C@@H]2c1cccc(OC)c1 | inconclusive: 13 µM [rising, partial curve] | –
CN(C)CCN1CC(O)=C(c2nc3ccccc3s2)C1=N | inactive | –
O=C1NCN(c2ccccc2)C12CCN(CCCC(c1ccc(F)cc1)c1ccc(F)cc1)CC2 | inconclusive: 8.2 µM [cytotoxic, partial curve] | –

SMILES | Potency | activity change, negative = cytotoxicity
Cc1cc(C(=O)Nc2ccccc2)oc(=O)c1 | inactive | –
O=C(CCN1C(=O)C2CCCCC2C1=O)N1CCN(S(=O)(=O)c2c(F)cccc2F)CC1 (centres undefined) | inconclusive: 32.6 µM [cytotoxic, partial curve, poor fit] | –
COc1ccc(OC)c(CNC(=O)c2ccc3c(c2)c(C)c(C)n3Cc2ccc(Cl)cc2)c1 | inconclusive: 20.6 µM [cytotoxic, single point] | –
C=CC(=O)Nc1ccc(Br)cc1 | inconclusive: 16.4 µM [cytotoxic, single point] | –
COc1ccc(OC(C)C(=O)Nc2ccc([N+](=O)[O-])cc2)cc1 (centres undefined) | inconclusive: 16.4 µM [cytotoxic, single point] | –
Oc1ccc2ccccc2c1N=Nc1ccccn1 | inconclusive: 4.11 µM [cytotoxic, full curve, poor fit] | –
CCc1ccc(NC(=O)CN(c2ccc(Cl)cc2)S(=O)(=O)c2ccsc2C(=O)OC)cc1 | inconclusive: 20.6 µM [cytotoxic, single point] | –
COc1ccc(CN2CCc3ccccc3C2)cc1Br | inactive | –
S=C1NC(c2ccccc2)=NCN1c1ccc(Br)cc1 | inconclusive: 16.4 µM [cytotoxic, single point] | –
N#C/C(=C\c1ccc(O)c([N+](=O)[O-])c1)C(=O)NCc1ccccc1 | inactive | –
Cc1cc(N2CCC(C)CC2)nc2ccc(NC(=O)Cc3c(F)cccc3Cl)cc12 | inactive | –
Cc1c(C(=O)N(C)C(C)c2ccccn2)oc2c(F)cccc12 (centres undefined) | inconclusive: 16.4 µM [cytotoxic, single point] | –
Cc1ccc(Cl)c(OCCN2CCc3ccccc3C2)c1 | inactive | –
Cc1ccc(NC(=O)c2ccccc2OCC(=O)c2ccccc2)cc1 | inactive | –
Cn1c(SCC(=O)N2CCCC2)nc2ccccc21 | inactive | –
COc1cc(S(=O)(=O)N(Cc2cccs2)C2CC2)ccc1-n1cnnn1 | active: 4.61 µM | –
O=C(NCc1ccc2c(c1)OCO2)C1CCC(CNc2c(N3CCCCC3)c(=O)c2=O)CC1 (centres undefined) | inconclusive: 23.1 µM [rising, single point] | –
Oc1ccc(-c2csc(-c3c[nH]c4ccccc34)n2)c(O)c1 | inconclusive: 18.4 µM [cytotoxic, single point] | –
CCOC(=O)c1cnn(-c2nc(OC)cc(OC)n2)c1C(F)(F)F | inconclusive: 2.91 µM [cytotoxic, partial curve, poor fit] | –
CSc1ccc(CN(C)C(=O)CCNS(=O)(=O)c2ccc(C)c(C)c2)cc1 | inconclusive: 8.2 µM [cytotoxic, partial curve] | –
CCOC(=O)c1cn2c(C)cccc2n1 | inconclusive: 29.1 µM [rising, single point] | –
O=C(COc1ccc(Cl)cc1)N1CCN(C(=O)c2cccs2)CC1 | inconclusive: 9.2 µM [cytotoxic, partial curve] | –
COc1ccc(C(CNC(=O)CNC(=O)c2cccc(F)c2)N2CCOCC2)cc1 (centres undefined) | inactive | –

SMILES | Potency | activity change, negative = cytotoxicity
CCCn1c(=O)c2ccccc2n2c(SCc3cc(=O)oc4ccc5ccccc5c34)nnc12 | inconclusive: 13 µM [cytotoxic, single point] | –
O=C(NCc1cccnc1)c1ccc(NC(=O)c2cccc([N+](=O)[O-])c2)cc1 | inactive | –
CCOc1ccc(-c2nc(N)ncc2-c2ccccc2)c(O)c1 | inconclusive: 13 µM [cytotoxic, partial curve] | –
NN1C(=O)/C(=C2/Sc3ccccc3N2CCCS(=O)(=O)O)SC1=S | inactive | –
C=CCN1C(=O)/C(=C\c2ccc(Cl)cc2)N=C1SCC(=O)NC1CCCCC1 | inconclusive: 29.1 µM [rising, single point] | –
Cc1ccsc1C1NC(=O)c2ccccc2N1 (centres undefined) | inconclusive: 18.4 µM [cytotoxic, single point] | –
Cc1cnc(C)c(Nc2nc(C(N)Cc3ccc(Cl)cc3)cs2)n1 (centres undefined) | active: 20.6 µM | –
CC(=O)Nc1ccc(S(=O)(=O)NCCC(=O)NCCOc2ccccc2)cc1 | inconclusive: 16.4 µM [rising, single point] | –
Cc1cccc(NC(=S)N(CCN(C)C)C(C)c2ccco2)c1 (centres undefined) | inconclusive: 14.6 µM [cytotoxic, partial curve, poor fit] | –
CCC(=O)NC(c1cc(Cl)c2cccnc2c1O)C(C)C (centres undefined) | inconclusive: 25.9 µM [cytotoxic, single point] | –
COc1ccc2ncc(S(=O)(=O)c3ccccc3)c(N3CCN(c4ccccc4)CC3)c2c1 | inactive | –
CCCCCc1cc(=O)oc2c(C(CCN3CCCC3)c3cc(OC)c(OC)c(OC)c3)c(OC)cc(OC)c12 (centres undefined) | inactive | –
CCCCOc1ccc(C(=O)N/N=C/c2cn[nH]c2-c2ccc(OC)c(OC)c2)cc1 | inactive | –
COc1cccc(C(=O)N/N=c2\oc3c(OC)cccc3cc2C(=O)NCc2ccccc2)c1 | inconclusive: 1.03 µM [cytotoxic, full curve] | –
Cc1ccc(NC(=O)C2CCN(S(=O)(=O)c3ccc4c(c3)NC(=O)C(C)S4)CC2)c(Cl)c1 (centres undefined) | inconclusive: 29.1 µM [cytotoxic, single point] | –
Cn1c2ccccc2c2nnc(SCC(=O)NCc3ccoc3)nc21 | inconclusive: 8.2 µM [cytotoxic, partial curve] | –
O=C(c1cccs1)N1CCN(c2nnc(-c3ccccc3)c3ccccc23)CC1 | inconclusive: 8.2 µM [cytotoxic, partial curve, poor fit] | –
O=C(CSC1CS(=O)(=O)c2cc([N+](=O)[O-])ccc21)NNC(=O)c1ccc(Cl)cc1 (centres undefined) | inconclusive: 8.2 µM [rising, partial curve, poor fit] | –
CCN(CC)c1ccc(/C=N/NC(=O)CNC(=O)C2COc3ccccc3O2)c(O)c1 (centres undefined) | inconclusive: 5.8 µM [cytotoxic, partial curve] | –
COCc1ccc(C(=O)N2CCCC(CCC(=O)NCc3ccccc3F)C2)o1 (centres undefined) | inconclusive: 14.6 µM [cytotoxic, partial curve] | –
O=C1CN(C(=O)N[C@@H](Cc2ccccc2)C(=O)N[C@@H](C(=O)O)c2ccccc2)c2ccccc2N1 | inconclusive: 13 µM [rising, partial curve, poor fit] | –
CN(C)C(=O)c1cc(C(=O)c2ccc(F)cc2C(F)(F)F)c[nH]1 | inactive | –
O=C(NNC(=S)NC(=O)c1cccs1)c1cccnc1 | inconclusive: 29.1 µM [cytotoxic, partial curve, poor fit] | –

Given field by field: entries from further up.
CS(=O)(=O)N(CC(=O)N1CCOCC1)c1cc(Cl)ccc1Cl
  Potency: inconclusive: 23.1 µM [rising, single point]
O=c1oc(-c2ccccc2F)nc2c1cnn2-c1ccccc1
  Potency: inactive
COc1ccc(-c2noc(N3CCC(C(=O)Nc4cccc(OC)c4)CC3)n2)cc1
  Potency: inactive
O=C(CCC1N=C2c3ccccc3N=C(SCc3ccc(F)cc3)N2C1=O)NCCc1ccccc1 (centres undefined)
  Potency: inactive

Reference: PubChem BioAssay AID1347076 (National Center for Advancing Translational Sciences (NCATS), 2019)
